# From publication PMC12788653 (PLOS Pathogens, 2025)
# Protein sequences, listed by entry. Tags and fused reporters are not part of them. Lines headed by an entry give the natural chain unless they say otherwise; changes in a name come on top.
# UniProt P15682: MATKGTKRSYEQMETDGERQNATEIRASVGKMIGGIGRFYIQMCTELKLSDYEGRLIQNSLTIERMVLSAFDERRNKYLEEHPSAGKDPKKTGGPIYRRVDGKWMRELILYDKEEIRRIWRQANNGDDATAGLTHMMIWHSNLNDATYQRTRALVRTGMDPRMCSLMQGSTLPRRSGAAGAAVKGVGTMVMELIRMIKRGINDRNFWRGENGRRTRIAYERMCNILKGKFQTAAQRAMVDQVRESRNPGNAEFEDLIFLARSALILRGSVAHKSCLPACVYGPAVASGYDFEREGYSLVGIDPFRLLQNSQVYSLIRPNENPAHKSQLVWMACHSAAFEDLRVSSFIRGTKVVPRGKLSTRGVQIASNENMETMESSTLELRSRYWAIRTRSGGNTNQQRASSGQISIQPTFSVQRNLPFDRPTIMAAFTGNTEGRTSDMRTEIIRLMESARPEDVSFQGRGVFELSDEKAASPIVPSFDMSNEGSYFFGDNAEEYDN
# Results are given in words; binding and its absence hold for the method and conditions named. In cells and extracts the contact can be indirect. Some entries that bind do so weakly or less than the wild type.
# What was measured:
# Experiment in all cases: co-IP
# [1] = target: endogenous PKCα (human (endogenous in A549)) (UniProt P17252)
# [2] = target: A/WSN/1933 (H1N1) NP made in virus infected cells (influenza A/WSN/1933 (H1N1)) (UniProt P15682)
# [3] = target: MEK2-3xFLAG (UniProt P36507)
binding [1],Substance,further results
binds,endogenous ERK2 (from UniProt P28482 1-360) (enzyme),–
binds,endogenous MEK1 (from UniProt Q02750 1-393) (enzyme),–
–,endogenous PKCα (from UniProt P17252 1-672) (enzyme),binding [2]: binds
–,influenza A/WSN/1933 (H1N1) nucleoprotein NP-V5 (from UniProt P15682 8-498),binding [3]: no binding
